Record: PubChem BioAssay AID1508597 (Cure First, 2020)

Test: 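Survival screen with siRNA in ovarian cancer cells derived from patients, with or without rucaparib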 (primary screen)
Cells: human ovarian carcinoma lines grown from tumours: OCI-P5x (papillary serous) and OCI-C5x (clear cell)
Knock-down reagent: siRNA pool against human genes, 1.25 pmol siRNA per well
Duration: 72 h or 96 h, depending on the cell culture
Conditions: rucaparib 20 µM (about IC30) or vehicle, present until read-out
Rucaparib or vehicle: Vehicle
Cell line: OCI-P5x (serous)
Measured: 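Luminescent ATP-based viability assay read 72 or 96 h after transfection, depending on culture, given as normalised percent viability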
Reading the numbers: viability, normalised: higher = more viable cells remaining
Active means: 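Active when normalised viability falls below 80 percent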
Calls: active = viability under 80%; inactive = viability 80% or more
This is a random part of the about 2,100 reagents, in one setting of the screen. 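Calls flag viability under 80% in either arm, not effects specific to rucaparib; the reference for percent is not stated.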 Some reagents were tested in more than one well and are listed for each. The record does not give: the 100% reference.

TP53BP1 (GeneID 7158), technical replicate 1 scored viability, normalised (%) = 96.5; inactive.
With TP53BP1 (GeneID 7158), technical replicate 1 the deposit lists viability, normalised (%) = 100; inactive.
For TP53BP1 (GeneID 7158), technical replicate 2, the values are viability, normalised (%) = 105; inactive.
TP53BP1 (GeneID 7158), technical replicate 2 scored viability, normalised (%) = 88.1; inactive.
TP53BP1 (GeneID 7158), technical replicate 3 showed viability, normalised (%) = 76.3; active.
TP53BP1 (GeneID 7158), technical replicate 3 showed viability, normalised (%) = 107; inactive.
IL4 (GeneID 3565), technical replicate 1 gave viability, normalised (%) = 62.8; active.
With IL4 (GeneID 3565), technical replicate 2 the deposit lists viability, normalised (%) = 69.8; active.
IL4 (GeneID 3565), technical replicate 3 showed viability, normalised (%) = 102; inactive.
With PADI4 (GeneID 23569), technical replicate 1, the entry reads viability, normalised (%) = 60.1; active.
With PADI4 (GeneID 23569), technical replicate 2, the values are viability, normalised (%) = 60.3; active.
For PADI4 (GeneID 23569), technical replicate 3, the values are viability, normalised (%) = 69; active.

Already shown: 2 of the entries above.
TP53BP1 (GeneID 7158), technical replicate 3 — viability, normalised (%): 76.3; call: active
TP53BP1 (GeneID 7158), technical replicate 3 — viability, normalised (%): 107; call: inactive
